Data as given in PubChem BioAssay AID602196 (INSERM, 2012)
Aim: 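Modifiers of cisplatin sensitivity in A549 cells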. System: human A549 lung cancer cells. Knock-down reagent: siRNA pair against human genes. Duration: 48 h transfection before cisplatin; time from cisplatin to read-out not stated. Challenge: cisplatin at a dose killing half of control-siRNA cells; exact dose and duration not given. Detection: 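Shift in cisplatin death relative to control siRNA, from -50 (all cells die) to +50 (no cells die); siRNAs harmful on their own scored 0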. Direction: two-siRNA summed score (-2 to +2): higher = both siRNAs protect from cisplatin killing; -2 means both sensitise; mean protection from cisplatin (shift in death) and protection from cisplatin (shift in death), siRNA C and protection from cisplatin (shift in death), siRNA D: higher = protection from cisplatin killing. Call rule: 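siRNAs harmful alone (LDH or WST-1) get 0; others get +1 for less and -1 for more cisplatin killing; genes are active when the two siRNAs give the same sign, summing to ±2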. Calls: active = both siRNAs shift cisplatin killing the same way; inactive = no consistent shift, or siRNA harmful alone.
The whole screen tested about 23,000 reagents; shown is an unselected part. In the full data, 455 (2%) got an active call. 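Active includes both protection and sensitisation; some change values fall well beyond the stated -50 to +50 range.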 Not stated in the record: the amount of reagent.

| Target gene | two-siRNA summed score (-2 to +2) | mean protection from cisplatin (shift in death) (%) | protection from cisplatin (shift in death), siRNA C (%) | protection from cisplatin (shift in death), siRNA D (%) | Outcome |
| --- | --- | --- | --- | --- | --- |
| ZNF160 | 1 | 9 | 14.7 | 3.4 | inactive |
| GFAP | 0 | 0.8 | -1.9 | 3.6 | inactive |
| TP53INP1 | 0 | 1.3 | 5.4 | -2.7 | inactive |
| H1-10 | 0 | -1.6 | 2.2 | -5.4 | inactive |
| LCT | 0 | -8.7 | -13.8 | -3.6 | inactive |
| TYROBP | -1 | -10.8 | -6.1 | -15.4 | inactive |
| CCDC87 | -1 | -7.2 | -16 | 1.5 | inactive |
| LOC441359 | 1 | 18.7 | 11.5 | 26 | inactive |
| MTO1 | 0 | -3.1 | -6.9 | 0.6 | inactive |
| LOC347512 | 1 | 9.5 | 18.1 | 0.8 | inactive |
| CTTNBP2 | 0 | -1.7 | 7.5 | -10.9 | inactive |
| LINC00926 | 0 | 15.8 | 17.5 | 14 | inactive |
| AGGF1 | 0 | -2.5 | 5.4 | -10.3 | inactive |
| SOX7 | 0 | -1.1 | -8.2 | 6 | inactive |
| PGRMC1 | -1 | -25.9 | -31.1 | -20.7 | inactive |
| OR8A1 | -1 | -2.6 | 14.6 | -19.8 | inactive |
| LOC391322 | 0 | 8.6 | 5.4 | 11.7 | inactive |
| AKNA | 0 | 6.6 | 3.9 | 9.3 | inactive |
| STYXL1 | 0 | 5 | 16.8 | -6.9 | inactive |
| KANSL1L | 0 | -3 | -4.6 | -1.4 | inactive |
| MGAM | 0 | -1.7 | 4.4 | -7.9 | inactive |
| LUC7L2 | 0 | 6 | 4.8 | 7.1 | inactive |
| AFG2A | 0 | 1.9 | 5.9 | -2 | inactive |
| MTBP | 1 | 5.7 | 15.7 | -4.3 | inactive |
| HDAC8 | 0 | -8.7 | -21.6 | 4.2 | inactive |
| FLJ21438 | 1 | 12.6 | -0.1 | 25.2 | inactive |
| LOC442072 | 0 | -3.4 | -3.4 | -3.4 | inactive |
| OSBPL7 | -1 | 0.3 | -11.1 | 11.6 | inactive |
| TEC | -1 | -5.5 | -16.3 | 5.3 | inactive |
| NUCB1 | -1 | -9.9 | -0.1 | -19.6 | inactive |
| PLCH2 | 0 | -8.7 | -3.7 | -13.7 | inactive |
| TCL6 | 0 | 4 | 3.8 | 4.2 | inactive |
| LOC441045 | 0 | 0.4 | 1.3 | -0.5 | inactive |
| LOC339799 | 0 | 12.3 | 26.4 | -1.7 | inactive |
| MAP3K8 | 1 | 7.1 | 1.8 | 12.4 | inactive |
| LOC401510 | 0 | 6.6 | 2.3 | 10.9 | inactive |
| LOC338749 | -1 | -7.6 | -13.3 | -1.9 | inactive |
| ZNF37BP | 0 | 7.4 | 7.1 | 7.8 | inactive |
| SRMS | 0 | -1.9 | -6.4 | 2.7 | inactive |
| LOC442570 | 0 | 3.1 | 4.8 | 1.3 | inactive |
| ORC2 | 0 | 7.7 | 10.6 | 4.8 | inactive |
| LOC440495 | 1 | 11.9 | 5.2 | 18.7 | inactive |
| ANO3 | 0 | -7.4 | -1.7 | -13 | inactive |
| CLDN10 | 0 | 15.7 | 18.9 | 12.5 | inactive |
| EPDR1 | 0 | -3 | -15.5 | 9.6 | inactive |
| CSDC2 | 0 | -3 | -6.6 | 0.6 | inactive |
| SERPINA3 | -1 | -15.8 | -0.8 | -30.7 | inactive |
| SKI | 0 | 4 | 10.1 | -2 | inactive |
| ERG28 | 0 | 14.8 | -1.3 | 30.8 | inactive |
| PPP1R3B | 0 | 2.3 | -3 | 7.5 | inactive |
| SNRPN | 0 | -1.3 | -4.7 | 2.1 | inactive |
| NCKAP5 | 0 | 24.4 | 36.4 | 12.5 | inactive |
| PHKA1 | -1 | -5.9 | 3.3 | -15 | inactive |
| ADH1B | 0 | -2.1 | 0.4 | -4.6 | inactive |
| NTM | 0 | 0.6 | 4 | -2.9 | inactive |
| SLX1B | 0 | 6.2 | 5.3 | 7.1 | inactive |
| LOC440707 | 1 | 9.1 | 13.4 | 4.8 | inactive |
| ACTA2 | 0 | 1.3 | -8.1 | 10.7 | inactive |
| CHST15 | 0 | 1.3 | 0 | 2.6 | inactive |
| DLK1 | 0 | -13 | -10.7 | -15.2 | inactive |
| OR6M1 | 0 | 3.8 | 8.2 | -0.7 | inactive |
| THNSL1 | 0 | -2.8 | 0.1 | -5.8 | inactive |
| REPIN1 | 1 | 14.7 | 10.3 | 19 | inactive |
| LOC402237 | 1 | 7.3 | 16.8 | -2.1 | inactive |
| TTTY5 | 0 | -0.5 | 1.1 | -2 | inactive |
| LOC342618 | 0 | 12.9 | 11.6 | 14.2 | inactive |
| LOC256176 | 0 | 4.4 | -7.1 | 15.9 | inactive |
| LOC441444 | 0 | 2.8 | 6.2 | -0.5 | inactive |
| TAS2R38 | 0 | -4.3 | -3.2 | -5.4 | inactive |
| PITPNM3 | 0 | 2.2 | 15.9 | -11.4 | inactive |
| RNASE1 | 0 | 2.9 | 12 | -6.1 | inactive |
| STARD6 | 0 | 9 | 13 | 4.9 | inactive |
| CST8 | 0 | 8.8 | 13.3 | 4.2 | inactive |

Copied from the listing for reference:
| Target gene | two-siRNA summed score (-2 to +2) | mean protection from cisplatin (shift in death) (%) | protection from cisplatin (shift in death), siRNA C (%) | protection from cisplatin (shift in death), siRNA D (%) | Outcome |
| --- | --- | --- | --- | --- | --- |
| ZNF160 | 1 | 9 | 14.7 | 3.4 | inactive |
| GFAP | 0 | 0.8 | -1.9 | 3.6 | inactive |
| TP53INP1 | 0 | 1.3 | 5.4 | -2.7 | inactive |
| H1-10 | 0 | -1.6 | 2.2 | -5.4 | inactive |
| LCT | 0 | -8.7 | -13.8 | -3.6 | inactive |
| TYROBP | -1 | -10.8 | -6.1 | -15.4 | inactive |
| CCDC87 | -1 | -7.2 | -16 | 1.5 | inactive |
| LOC441359 | 1 | 18.7 | 11.5 | 26 | inactive |
| MTO1 | 0 | -3.1 | -6.9 | 0.6 | inactive |
| LOC347512 | 1 | 9.5 | 18.1 | 0.8 | inactive |
| CTTNBP2 | 0 | -1.7 | 7.5 | -10.9 | inactive |
